Test results published in PMC6105679.
No constants are given. Whether binding was seen depends on the method and setting. Binding seen in cells or lysates may run through a third protein. Some entries that bind do so weakly or less than the wild type.

Sequences of proteins named here, by UniProt entry; tags and fusion partners are left off.
UniProt Q5NCY0: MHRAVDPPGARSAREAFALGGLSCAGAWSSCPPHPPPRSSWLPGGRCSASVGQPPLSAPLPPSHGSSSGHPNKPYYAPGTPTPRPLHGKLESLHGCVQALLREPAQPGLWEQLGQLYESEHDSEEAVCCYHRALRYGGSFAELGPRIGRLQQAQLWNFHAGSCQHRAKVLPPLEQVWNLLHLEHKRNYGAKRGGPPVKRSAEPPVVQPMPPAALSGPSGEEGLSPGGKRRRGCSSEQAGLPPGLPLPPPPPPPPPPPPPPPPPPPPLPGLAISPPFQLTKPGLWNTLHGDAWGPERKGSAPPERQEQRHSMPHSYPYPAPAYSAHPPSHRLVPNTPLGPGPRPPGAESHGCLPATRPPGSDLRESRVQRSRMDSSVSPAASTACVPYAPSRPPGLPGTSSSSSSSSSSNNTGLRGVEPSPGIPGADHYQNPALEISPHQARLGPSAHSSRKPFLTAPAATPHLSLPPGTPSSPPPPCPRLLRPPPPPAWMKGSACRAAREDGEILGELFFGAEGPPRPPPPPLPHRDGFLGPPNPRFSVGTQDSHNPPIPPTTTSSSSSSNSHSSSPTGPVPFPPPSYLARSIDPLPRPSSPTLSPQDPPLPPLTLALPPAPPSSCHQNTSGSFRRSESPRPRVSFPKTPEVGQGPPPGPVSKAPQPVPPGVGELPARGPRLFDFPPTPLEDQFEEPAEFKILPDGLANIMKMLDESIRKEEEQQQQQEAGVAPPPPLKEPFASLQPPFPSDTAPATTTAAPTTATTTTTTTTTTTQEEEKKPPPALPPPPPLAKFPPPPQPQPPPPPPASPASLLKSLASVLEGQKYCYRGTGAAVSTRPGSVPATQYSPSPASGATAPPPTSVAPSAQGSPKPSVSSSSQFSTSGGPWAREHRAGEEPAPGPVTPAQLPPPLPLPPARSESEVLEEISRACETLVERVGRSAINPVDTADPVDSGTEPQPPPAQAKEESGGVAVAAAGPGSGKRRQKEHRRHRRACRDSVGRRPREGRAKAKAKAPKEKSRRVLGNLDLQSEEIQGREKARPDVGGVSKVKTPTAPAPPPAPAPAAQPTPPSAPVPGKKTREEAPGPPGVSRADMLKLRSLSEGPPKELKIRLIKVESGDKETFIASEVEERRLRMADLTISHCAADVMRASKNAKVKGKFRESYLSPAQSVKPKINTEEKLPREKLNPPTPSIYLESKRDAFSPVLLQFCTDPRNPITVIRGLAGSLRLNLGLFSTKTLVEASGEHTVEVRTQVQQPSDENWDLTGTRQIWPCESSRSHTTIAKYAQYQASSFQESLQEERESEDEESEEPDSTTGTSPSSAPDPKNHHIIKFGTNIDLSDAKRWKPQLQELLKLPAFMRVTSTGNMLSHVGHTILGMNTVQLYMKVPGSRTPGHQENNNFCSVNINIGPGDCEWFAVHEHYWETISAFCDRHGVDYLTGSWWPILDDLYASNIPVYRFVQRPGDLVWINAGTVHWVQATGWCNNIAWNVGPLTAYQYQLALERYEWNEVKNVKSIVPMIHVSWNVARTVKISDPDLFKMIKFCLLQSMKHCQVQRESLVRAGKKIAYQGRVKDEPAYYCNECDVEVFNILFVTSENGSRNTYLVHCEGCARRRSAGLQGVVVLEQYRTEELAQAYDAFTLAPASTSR
UniProt P53566: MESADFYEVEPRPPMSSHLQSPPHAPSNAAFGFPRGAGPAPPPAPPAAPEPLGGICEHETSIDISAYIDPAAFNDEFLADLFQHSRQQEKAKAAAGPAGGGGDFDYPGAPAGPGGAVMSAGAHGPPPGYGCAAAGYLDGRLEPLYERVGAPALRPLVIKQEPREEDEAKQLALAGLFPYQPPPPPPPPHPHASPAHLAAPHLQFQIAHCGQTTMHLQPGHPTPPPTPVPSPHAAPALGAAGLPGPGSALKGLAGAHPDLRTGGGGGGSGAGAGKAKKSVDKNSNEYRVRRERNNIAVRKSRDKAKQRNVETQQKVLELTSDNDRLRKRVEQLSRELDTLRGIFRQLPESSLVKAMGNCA
UniProt P28033: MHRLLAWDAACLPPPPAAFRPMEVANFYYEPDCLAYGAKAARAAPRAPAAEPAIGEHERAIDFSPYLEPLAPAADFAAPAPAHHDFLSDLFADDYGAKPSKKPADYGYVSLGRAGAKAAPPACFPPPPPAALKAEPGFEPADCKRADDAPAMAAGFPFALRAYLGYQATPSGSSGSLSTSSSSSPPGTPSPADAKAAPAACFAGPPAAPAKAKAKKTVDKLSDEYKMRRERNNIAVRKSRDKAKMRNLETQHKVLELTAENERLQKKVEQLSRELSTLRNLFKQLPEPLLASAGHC

Molecular target: Jmjd3 (Jumonji domain-containing protein D3), mouse, endogenous in 32D cells (mouse (endogenous in 32D)) (UniProt Q5NCY0)
Experiment: co-IP; 32D cell lysates immunoprecipitated with Jmjd3 antibody, blotted with Jmjd3, C/ebpα or C/ebpβ antibody; IgG as negative control; lysis buffer 50 mM Tris pH 7.5, 150 mM NaCl, 0.5% Triton X-100; Protein G Dynabeads

Row | binding | Substance
1 | no binding | C/ebpα, mouse, endogenous in 32D cells (from UniProt P53566 1-359)
2 | binds | C/ebpβ, mouse, endogenous in 32D cells (from UniProt P28033 1-296)
